Measurements reported in PubChem BioAssay AID1671195 (Yale University, 2021).

Assay: 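Knockdowns that increase or decrease uptake of fluorescent LDL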 (primary screen)
Cell system: human Huh7 hepatoma cells
Knock-down reagent: siRNA pool against human genes, 18 nM
Timing: about 2 to 2.5 days of knockdown, then 8 h LDL uptake
Conditions: DiI-labelled LDL at 30 µg/ml for 8 h, in lipoprotein-deficient serum medium
Read-out: 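Per-cell DiI-LDL intensity by automated imaging; well means scaled to the plate median and given as a robust z-score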
Direction: robust z-score: higher = more LDL uptake after knockdown
Hit rule: 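Active when two or more replicates show a robust z-score above 2 or below -2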
The whole screen tested about 22,000 reagents; this is a part drawn at random. About 1,510 of all reagents (6.9%) were called active. 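Active includes knockdowns raising or lowering LDL uptake; positive z-scores mean more uptake, negative mean less.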

Gene | PubChem SID | robust z-score, replicate 1 | robust z-score, replicate 2 | robust z-score, replicate 3 | call
RUBCN | SID442896699 | 0.358 | -0.444 | -0.82 | inactive
BARD1 | SID442897146 | -0.688 | -0.303 | -0.0653 | inactive
USP54 | SID442896785 | -0.173 | -0.615 | -0.15 | inactive
KIAA0753 | SID442895725 | 0.185 | 0.563 | -1.35 | inactive
UBQLN4P1 | SID442893308 | -0.126 | 0.0695 | 0.25 | inactive
BTF3 | SID442901433 | -0.979 | -0.749 | -0.97 | inactive
PRDM11 | SID442884641 | 5.43 | 0.924 | -0.132 | inactive
SERPINF1 | SID442883983 | 1.82 | 1.92 | 2.55 | active
LOC389243 (retired record) | SID442896520 | -0.232 | -0.252 | -0.363 | inactive
E2F3 | SID442886103 | 1.83 | 2.01 | -0.0392 | inactive
LOC400526 (retired record) | SID442883245 | 4.25 | 3.2 | 3.58 | active
LOC401307 (retired record) | SID442901621 | -0.664 | -2.16 | 0.0399 | inactive
TOR1AIP1 | SID442902420 | -1.85 | -0.863 | -0.503 | inactive
MEMO1 | SID442897866 | -0.0214 | -0.723 | -0.556 | inactive
DIAPH2 | SID442891950 | 0.586 | 1.07 | -0.975 | inactive
TRIM16 | SID442887600 | -0.0082 | 1.73 | 0.914 | inactive
ASXL3 | SID442885765 | 1.55 | 1.49 | 1.09 | inactive
ARAP3 | SID442904712 | -1.65 | -1.76 | -2.05 | inactive
SLC6A17 | SID442891422 | 0.441 | 0.349 | 0.0738 | inactive
SEMA4B | SID442898810 | -0.812 | -0.274 | -0.536 | inactive
GNLY | SID442895943 | 0.0174 | -0.16 | -0.526 | inactive
G3BP2 | SID442885840 | 0.917 | 1.44 | 1.68 | inactive
BTK | SID442902529 | -0.574 | -1.49 | -1.23 | inactive
TRIR | SID442900933 | -0.846 | -1.04 | -0.597 | inactive
SRSF5 | SID442898917 | -0.809 | -0.826 | -0.027 | inactive
ZNF625 | SID442893058 | 0.347 | 0.00843 | -0.0769 | inactive
CD200R1 | SID442884800 | 1.87 | 2.05 | 1.73 | inactive
LINC01148 | SID442891321 | -0.283 | 0.349 | 0.834 | inactive
VAPA | SID442904612 | -1.88 | -1.51 | -1.85 | inactive
MASP2 | SID442897014 | -0.543 | -0.224 | -0.246 | inactive
KRT14 | SID442886875 | 0.861 | 0.736 | 1.52 | inactive
IL9RP2 | SID442899658 | -0.772 | -0.232 | -0.948 | inactive
ST6GALNAC2 | SID442892101 | 0.099 | 0.141 | 0.387 | inactive
SRSF10 | SID442895291 | -0.273 | 0.03 | -0.219 | inactive
MTR | SID442896250 | -0.267 | -0.085 | -0.406 | inactive
MYO5A | SID442898726 | -0.618 | -0.643 | -0.33 | inactive
UNC5B | SID442886971 | 1.11 | 0.825 | 1.12 | inactive
LOC391783 (retired record) | SID442886827 | 0.431 | 1.17 | 1.56 | inactive
SOX17 | SID442899525 | -0.643 | -0.687 | -0.564 | inactive
CABP4 | SID442889341 | 0.824 | 0.351 | 0.549 | inactive
C2orf42 | SID442888063 | 0.37 | 1.02 | 0.975 | inactive
HLA-DRB5 | SID442902571 | -0.547 | -1.94 | -0.826 | inactive
CA14 | SID442895422 | -0.0377 | -0.142 | -0.322 | inactive
SLC47A2 | SID442891468 | 0.48 | 0.238 | 0.13 | inactive
RIPK4 | SID442888720 | 0.716 | 0.556 | 0.746 | inactive
TDRD1 | SID442892650 | 0.0348 | 0.723 | -0.334 | inactive
